The nature of the data set: general procedure: Fmoc solid-phase peptide synthesis; Rink amide MBHA resin, Wang resin; DIC/HOBt. Conditions: conjugation step, analytical HPLC.

For the substance H-PLGVRGRHYNNPIWRQRY-NH2, the “final HPLC purity” value is “above 95%”.

Source of the values: PMC10375191 (Advanced Science, 2023).
